In US20230235078A1 (University of Texas, published 2023):
Results are given in words; binding and its absence hold for the method and conditions named. For some of these results: A result given as binding can be weak or reduced; the word gives no strength.

B1: DDR1-9 (antibody, V domains shown)
VH: QSLEESGGRLVTPGTPLTLTCTASGFSLNRYYMLWVRQAPGEGLEWIGTISYGDTTYYASWAKGRFTISKTSTTVDLKMTSPTTEDTATYFCARADTGDNGYLGLQLWGPGTLVTVSS
VL: ELVMTQTPASVEAAVGGTVTIKCQASQSIGSVLAWYQQKPGQRPKLLISGVFDLASGVPSRFKGSGSGTEFTLTISDLECADAATYYCQYIPYGSSPFGGGTEVVVK
notes: Rabbit variable domains; also called anti-huDDR1 antibody #9; DDR1-9K/DDR1-9H
B2: DDR1-14 (antibody, V domains shown)
VH: QSVKESGGRLVTPGTPLTLTCTVSGIDLSYYAMSWVRQAPGKGLEYIGIINGRGDTGYATWAKGRFTISKTSTTVDLRITSPTIEDTATYFCAREDSAIPFIVGNYYGMDLWGPGTLVTVSS
VL: ELDMTQTPASVSEPVGGTVTIKCQASQSISSYLAWYQQKPGQPPKRLIFEASTLASGVPSRFSGSGSGTDFTLTISDLECADAATYYCQNNNGFSGSNFNNFGGGTEVEIK
notes: Rabbit variable domains; also called anti-huDDR1 antibody #14; DDR1-14K/DDR1-14H
B3: DDR1-9Hu-Ab1 (antibody, V domains shown)
VH: QVQLVESGGRVVQPGRSLRLSCTASGFSLNRYYMLWVRQAPGKGLEWIGTISYGDTTYYASWAKGRFTISRDNSKNTLYLQMNSLRAEDTAVYYCARADTGDNGYLGLQLWGQGTLVTVSS
VL: DIQMTQSPSSVSASVGDRVTITCQASQSIGSVLAWYQQKPGKAPKLLISGVFDLASGVPSRFSGSGSGTDFTLTISSLQPEDFATYYCQYIPYGSSPFGGGTKVEIK
notes: Humanized form of DDR1-9; also called DDR1-9hu-Abl; humanized DDR1-9hu antibody

Experiments:
[1] = molecular target: DDR1 ECD fragment with deletion of DS domain (Homo sapiens (Human)); assay: ELISA, domain deletion protein coated at 2 ug/ml
[2] = molecular target: DDR1 ECD fragment with deletion of DS domain (Homo sapiens (Human)); assay: ELISA, ECDΔDS-His coated at 2 µg/ml, antibody titrated
[3] = molecular target: DDR1 ECD fragment with deletion of DS domain (Homo sapiens (Human)); assay: ELISA, domain deletion protein coated at 2 µg/ml
[4] = molecular target: EJXM-His; assay: ELISA, EJXM-His coated, huDDR1-9 titrated

Binder | binding [1] | binding [2] | binding [3] | binding [4]
B1 | binds | binds | – | –
B2 | binds | binds | – | –
B3 | binds | – | binds | no binding (tested: 10000 ng/mL (4 on the log10 axis))
